Assay results taken from PubChem BioAssay AID212 (DTP/NCI, 2004).
The list is a part of this screen's results and no random one: it gathers tests that were run many times, whatever their T/C, doses with no T/C, and many T/C values between a quarter and a half above the control. Other doses and runs of a compound stand elsewhere. T/C: endpoint of the treated group in % of that of the vehicle group. Schedules are NCI's codes, read here as Q, the interval in days (D) or hours (H), X, the number of doses. Some T/C values carry the count of animals alive at the toxicity check (mostly the fifth day); without a count, all were alive then. Some entries were tested several times; the values are given in rising order. Some doses have a count of surviving animals in place of a T/C: the source files T/C as zero there, which appears to mark a toxic dose or a test without result, not a measured value. Counts of survivors are from the toxicity check (mostly the fifth day) where no day follows; animals may have died later.

Test system: BDF1 mice, colon carcinoma 38 sc, T/C %
Test: NCI In Vivo Anticancer Drug Screen. Data for tumor model Colon Carcinoma 38 (subcutaneous) in B6D2F1 (BDF1) mice
Details: T/C endpoint: median tumor weight (est.), higher T/C = larger tumour; for T/C: evaluated on day 20
Method in brief: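 Mice with transplanted tumors are treated with compound or vehicle. Survival or tumor size is then measured in both groups. The ratio of treated to control gives the reported figure.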

[1] = dose: 200.0 mg/kg/injection, schedule: Q07DX002 (ip), vehicle: saline with Tween-80
[2] = dose: 400.0 mg/kg/injection, schedule: Q07DX002 (ip), vehicle: saline with Tween-80
[3] = dose: 6.25 mg/kg/injection, schedule: Q07DX002 (ip), vehicle: saline with Tween-80
[4] = dose: 100.0 mg/kg/injection, schedule: Q07DX002 (ip), vehicle: saline
[5] = dose: 800.0 mg/kg/injection, schedule: Q07DX002 (ip), vehicle: saline
[6] = dose: 25.0 mg/kg/injection, schedule: Q07DX002 (ip), vehicle: saline with Tween-80
[7] = dose: 100.0 mg/kg/injection, schedule: Q07DX002 (ip), vehicle: saline with Tween-80
[8] = dose: 800.0 mg/kg/injection, schedule: Q07DX002 (ip), vehicle: saline with Tween-80
[9] = dose: 50.0 mg/kg/injection, schedule: Q07DX002 (ip), vehicle: saline with Tween-80
[10] = dose: 3.12 mg/kg/injection, schedule: Q07DX002 (ip), vehicle: saline
[11] = dose: 6.25 mg/kg/injection, schedule: Q07DX002 (ip), vehicle: saline
[12] = dose: 12.5 mg/kg/injection, schedule: Q07DX002 (ip), vehicle: water
[13] = dose: 400.0 mg/kg/injection, schedule: Q07DX002 (ip), vehicle: Klucel (hydroxypropylcellulose) (HPC)

Which results are given for `COc1cc(C(C)(C)C)cc(OC)c1C(O)(c1c(OC)cc(C(C)(C)C)cc1OC)c1c(OC)cc(C(C)(C)C)cc1OC`?
survivor count [1]: 4 of 10 on day 20; survivor count [2]: 0 of 10 on day 20

`Cc1cc(N(CC(C)Br)CC(C)Br)ccc1N=Nc1ccccc1C(=O)O` (stereo not drawn) was tested. Which T/C [3] did it give?
Its T/C is 137 % of control.

How did the T/C (dose: 6.25 mg/kg/injection, schedule: Q07DX002 (ip), vehicle: Klucel (hydroxypropylcellulose) (HPC)) turn out when `C=CCNc1ccc(C)cc1` was run?
The T/C was 135 % of control [9 of 10 alive on day 20].

With `CCCC(=O)Nc1ncnc2c1ncn2C1OC2COP(=O)(O)OC2C1OC(=O)CCC` (stereo not drawn) as the compound, how does the survivor count (dose: 25.0 mg/kg/injection, schedule: Q07DX002 (ip), vehicle: saline) read?
Its survivor count is 6 of 10 on day 20.

And the T/C [4]?
Its T/C is 129 % of control.

What about the survivor count (dose: 400.0 mg/kg/injection, schedule: Q07DX002 (ip), vehicle: saline) of the same compound?
The survivor count was 4 of 10 on day 20.

And the survivor count [5]?
The survivor count was 5 of 10 on day 20.

`CC(=O)OC(C)C1C2=C(C(=O)CC1(C)O)C(=O)c1c(ccc(-c3ccc4c(c3O)C(=O)C3=C(C4=O)C(C(C)OC(C)=O)C(C)(O)CC3=O)c1O)C2=O` (stereo not drawn) was tested. Which survivor count (dose: 15.0 mg/kg/injection, schedule: Q07DX002 (ip), vehicle: saline with Tween-80) did it give?
Its survivor count is 5 of 10 on day 20.

What does the source list for `C=C1C(=O)OCC1(C(=O)OCC)C(=O)OCC`?
T/C [6]: 125 % of control [8 of 10 alive on day 20]; survivor count [7]: 3 of 10 on day 20; survivor count [1]: 0 of 10 on day 20; survivor count [2]: 0 of 10 on day 20

What does the source list for `NS(=O)(=O)OCCCCCCCOS(N)(=O)=O`?
survivor count [2]: 0 of 10 on day 20 and 1 of 10 on day 20; survivor count [8]: 0 of 10 on day 20

Which T/C (dose: 1.68 mg/kg/injection, schedule: Q07DX002 (ip), vehicle: Klucel (hydroxypropylcellulose) (HPC)) does the source give for `C=C(OC1C(C)=C2C(C1OC(=O)CCCCCCC)C(C)(OC(C)=O)CC(OC(=O)CCC)C1(O)C2OC(=O)C1(C)O)/C(C)=C/C` (stereo not drawn) here?
Its T/C is 6, 100, 117 [9 of 10 alive], 184 % of control.

`O=C(CO)c1ccc([N+](=O)[O-])cc1` was tested. Which T/C [9] did it give?
The T/C was 143 % of control.

`CN(C)C=O` was tested. Which T/C (dose: 200.0 mg/kg/injection, schedule: Q07DX002 (ip), vehicle: saline) did it give?
The T/C was 143 % of control.

And the T/C [5]?
Its T/C is 138 % of control.

What about the survivor count (dose: 1600.0 mg/kg/injection, schedule: Q07DX002 (ip), vehicle: saline) of the same compound?
Its survivor count is 5 of 10 on day 20.

What about the survivor count (dose: 3200.0 mg/kg/injection, schedule: Q07DX002 (ip), vehicle: saline) of the same compound?
Its survivor count is 3 of 10 on day 20.

`O=C(CN1CCOCC1)Nc1nc(-c2ccc(Cl)cc2)cs1` was tested. Which survivor count (dose: 800.0 mg/kg/injection, schedule: Q07DX002 (ip), vehicle: DMSO) did it give?
The survivor count was 1 of 10 on day 20.

Which T/C (dose: 1.56 mg/kg/injection, schedule: Q07DX002 (ip), vehicle: saline with Tween-80) does the source give for `CCCCCCCCCCCCN1C(C)=CS/C1=C\C=C\c1scc(C)[n+]1CCCCCCCCCCCC` here?
Its T/C is 128 % of control.

And the T/C (dose: 3.13 mg/kg/injection, schedule: Q07DX002 (ip), vehicle: saline with Tween-80)?
Its T/C is 141 % of control.

What about the T/C [3] of the same compound?
Its T/C is 126 % of control [8 of 10 alive on day 20].

And the survivor count [6]?
The survivor count was 0 of 10 on day 20.

With `C[C@@H]1C[C@@H]([C@H](O)CC2CC(=O)NC(=O)C2)C(=O)[C@@H](C)C1` as the compound, how does the T/C [6] read?
The T/C was 125 % of control [9 of 10 alive on day 20].

What about the survivor count [2] of the same compound?
Its survivor count is 1 of 10 on day 20.

Which results are given for `O=[Te]=O`?
T/C [10]: 135 % of control; T/C [11]: 141 % of control; T/C (dose: 12.5 mg/kg/injection, schedule: Q07DX002 (ip), vehicle: saline): 129 % of control; survivor count [4]: 5 of 10 on day 20

How did the T/C [1] turn out when `CCOC(=O)c1cn(C)c2c1C(O)=C(C(=O)OC)CC(=O)N2` was run?
The T/C was 131 % of control.

With `O=C(O)CSc1nc(-c2ccccc2)c(-c2ccccc2)n1-c1ccccn1` as the compound, how does the T/C [12] read?
The T/C was 126 % of control.

And the survivor count [13]?
The survivor count was 0 of 10 on day 20.

And the survivor count (dose: 400.0 mg/kg/injection, schedule: Q07DX002 (ip), vehicle: water)?
The survivor count was 0 of 10 on day 20.

Which T/C (dose: 144.0 mg/kg/injection, schedule: Q07DX002 (ip), vehicle: saline) does the source give for `NNC(=O)c1ccncc1` here?
Its T/C is 128 % of control.

What about the survivor count (dose: 288.0 mg/kg/injection, schedule: Q07DX002 (ip), vehicle: saline) of the same compound?
Its survivor count is 4 of 10 on day 20.

How did the T/C (dose: 200.0 mg/kg/injection, schedule: Q07DX002 (ip), vehicle: Klucel (hydroxypropylcellulose) (HPC)) turn out when `C[Si](C)(C)OSc1ccccc1[N+](=O)[O-]` was run?
The T/C was 138 % of control.

And the T/C [13]?
The T/C was 126 % of control.

`c1ccc2c(c1)-c1ccccc1C1NC21` (stereo not drawn) was tested. Which survivor count [7] did it give?
The survivor count was 3 of 10 on day 20.

And the survivor count [1]?
Its survivor count is 0 of 10 on day 20.

For `O=C1N=C(Oc2ccccc2)SC1=O`, which T/C [9] is on record?
Its T/C is 132 % of control [8 of 10 alive on day 20].

And the survivor count [7]?
Its survivor count is 3 of 10 on day 20.

And the survivor count [1]?
Its survivor count is 6 of 10 on day 20.

And the survivor count [2]?
The survivor count was 0 of 10 on day 20 and 1 of 10 on day 20.

And the survivor count [8]?
The survivor count was 0 of 10 on day 20.

Which results are given for `CC1(O)CC23CC(O)C4(O)C(CC(O)C4(C)C)C(C)(O)C2CCC1C3O` (stereo not drawn)?
survivor count (dose: 1.0 mg/kg/injection, schedule: Q07DX002 (ip), vehicle: Klucel (hydroxypropylcellulose) (HPC)): 0 of 10 on day 20; survivor count (dose: 2.0 mg/kg/injection, schedule: Q07DX002 (ip), vehicle: Klucel (hydroxypropylcellulose) (HPC)): 0 of 10 on day 20; survivor count (dose: 4.0 mg/kg/injection, schedule: Q07DX002 (ip), vehicle: Klucel (hydroxypropylcellulose) (HPC)): 0 of 10 on day 20

With `Nc1ncnc2c1ccn2C1OC(CO)C(O)C1O` (stereo not drawn) as the compound, how does the survivor count (dose: 8.0 mg/kg/injection, schedule: Q07DX003 (ip), vehicle: Klucel (hydroxypropylcellulose) (HPC)) read?
Its survivor count is 2 of 10 and 5 of 10.

`C[n+]1c(-c2cccc3ccccc23)c2cc(N)ccc2c2ccccc21` was tested. Which T/C [10] did it give?
The T/C was 132 % of control.

And the T/C [11]?
The T/C was 128 % of control.

And the survivor count (dose: 50.0 mg/kg/injection, schedule: Q07DX002 (ip), vehicle: saline)?
Its survivor count is 1 of 10 on day 20 and 3 of 10 on day 20.

What about the survivor count (dose: 50.0 mg/kg/injection, schedule: Q07DX002 (ip), vehicle: suspension in saline) of the same compound?
Its survivor count is 6 of 10 on day 20.

What about the survivor count [4] of the same compound?
Its survivor count is 0 of 10 on day 20.

And the survivor count (dose: 100.0 mg/kg/injection, schedule: Q07DX002 (ip), vehicle: suspension in saline)?
The survivor count was 0 of 10 on day 20.

With `CC(=O)O[C@H]1C(=O)[C@@]2(C)[C@H]([C@H](OC(=O)c3ccccc3)[C@]3(O)C[C@H](OC(=O)[C@H](O)[C@@H](NC(=O)c4ccccc4)c4ccccc4)C(C)=C1C3(C)C)[C@]1(OC(C)=O)CO[C@@H]1C[C@@H]2O` as the compound, how does the T/C (dose: 15.0 mg/kg/injection, schedule: Q07DX002 (ip), vehicle: Klucel (hydroxypropylcellulose) (HPC)) read?
The T/C was 131 % of control [9 of 10 alive].

What does the source list for `CC1(O)C=CC(=O)C=C1`?
T/C [12]: 142 % of control; T/C (dose: 25.0 mg/kg/injection, schedule: Q07DX002 (ip), vehicle: water): 133 % of control; survivor count (dose: 100.0 mg/kg/injection, schedule: Q07DX002 (ip), vehicle: water): 0 of 10 on day 20; survivor count (dose: 200.0 mg/kg/injection, schedule: Q07DX002 (ip), vehicle: water): 0 of 10 on day 20

`CCCC(=O)OC1C=C2N3C(=O)C4CC56C(=CC(OC(C)=O)C7OC75)N4C(=O)C3CC26C2OC12` (stereo not drawn) was tested. Which T/C (dose: 0.63 mg/kg/injection, schedule: Q07DX002 (ip), vehicle: Klucel (hydroxypropylcellulose) (HPC)) did it give?
The T/C was 140 % of control.
